Article PMC10803754
No constants are given. Whether binding was seen depends on the method and setting. Binding seen in cells or lysates may run through a third protein. Some results given as binding are weak or reduced against the parent protein; the word gives no strength. Tags and fused reporters may be left off the sequences shown.

Experiments:
[1] = target: T1, Multicilin tagged at the N-terminus with 3xFLAG (mouse) (mouse) (UniProt Q3UZ45); test: co-IP; FLAG M2 agarose precipitation from lysates of MEFs infected with Ad5 FLAG-MCI alone; eluted with FLAG peptide; immunoblot for Rbl1, Rbl2 and FLAG
T1 sequence: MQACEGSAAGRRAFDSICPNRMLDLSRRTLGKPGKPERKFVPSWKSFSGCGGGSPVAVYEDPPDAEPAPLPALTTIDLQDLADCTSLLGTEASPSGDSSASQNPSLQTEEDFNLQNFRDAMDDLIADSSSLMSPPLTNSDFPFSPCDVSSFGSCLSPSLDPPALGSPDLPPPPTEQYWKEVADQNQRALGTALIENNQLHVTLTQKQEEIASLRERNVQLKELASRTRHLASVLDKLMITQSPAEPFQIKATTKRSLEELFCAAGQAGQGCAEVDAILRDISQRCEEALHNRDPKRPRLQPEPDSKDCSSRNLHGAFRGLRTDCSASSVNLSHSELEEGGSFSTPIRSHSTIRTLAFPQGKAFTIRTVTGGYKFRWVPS

[2] = target: T1, Multicilin tagged at the N-terminus with 3xFLAG (mouse) (mouse); test: co-IP; FLAG M2 agarose precipitation from lysates of MEFs infected with Ad5 FLAG-MCI+E2f4 (wildtype E2f4 co-expressed); eluted with FLAG peptide; immunoblot for Rbl1, Rbl2 and FLAG

binding [1]: binds | binding [2]: binds
B1: Retinoblastoma-like protein 2 (RBL2), mouse (protein, UniProt Q64700 1-1135)
chain: MASGGNQSPPPPPAAAASSEEEEEDGDAADRAQPAGSPSHQIQQRFEELCSRLNMDEAARAEAWSSYRSMSESYTLEGNDLHWLACALYVACRKSVPTVSKGTAEGNYVSLTRILRCSEQSLIEFFNKMKKWEDMANLPPHFRERTERLERNFTVSAVIFKKYEPIFQDIFKYPQEEQPRQQRGRKQRRQPCTTSEIFHFCWVLFIYAKGNFPMISDDLVNSYHLLLCALDLVYGNALQCSNRKELVNPNFKGLSEDCHPKDSKASSDPPCVIEKLCSLHDGLVLEAKGIKEHFWKPYIRKLFEKKLLKGKEENLTGFLEPGNFGESFKAVNKAYEEYVLAAGNLDERVFLGEDAEEEVGTLSRCLSAASGTESAERTQMRDILQQHLDKSKALRVCTPLTGVRYVQENSPCVTPVSTAAHSLSRLHTMLSGLRNAPSEKLERILRSCSRDPTQAIADRLKEMYEIYSQHFQPDENFSNCAKEIANKHFRFAEMLYYKVLESVIEQEQKRLGDMDLSGVLEHDAFHRSLLACCLEVVAFSHKPPGNFPFIAEIFDVPHYHFYKVIEVFIRAEDGLCREVVKHLNQIEEQILDHLAWKTKSPLWDRIRDNENRVPTCEEVMPPQNLERTDEIYIAGSPLTPRRVGEVRADAGGLGRSITSPTTLYDRYSSPTVSTTRRRLFENDSPSEGSTSGRIPPQPLVNAVPVQNVPGETVSVTPVPGQTLVTMATATVTANNGQTVTIPVQGIANENGGITFFPVQVNVGGQAQAVAGSIQPLSAQALAGSLSSQQVTGTTLQVPGPVAIQQISPGGQQQNPGQPLTSSSIRPRKTSSLALFFRKVYYLAGVRLRDLCIKLDISDELRKKIWTCFEFSIIQCTELMMDRHLDQLLMCAIYVMAKVTKEDRSFQNIMRCYRTQPQARSQVYRSVLIKGKRRNSGSSESRSHQNSPTELNTDRASRDSSPVMRSNSTLPVPQPSSAPPTPTRLTGASSDVEEEERGDLIQFYNNIYRKQIQAFAMKYSQANAQTDTPPLSPYPFVRTGSPRRVQLSQSHPIYISPHNNEAMPSPREKIFYYFSNSPSKRLREINSMIRTGETPTKKRGILLDDGSESPAKRICPENHSALLRRLQDVANDRGSQ
